In article PMC9274497 one finds binding data, which are given here for 1 molecule.

Protein sequences, listed by entry. Tags and fused reporters are not part of them.
UniProt Q969H0: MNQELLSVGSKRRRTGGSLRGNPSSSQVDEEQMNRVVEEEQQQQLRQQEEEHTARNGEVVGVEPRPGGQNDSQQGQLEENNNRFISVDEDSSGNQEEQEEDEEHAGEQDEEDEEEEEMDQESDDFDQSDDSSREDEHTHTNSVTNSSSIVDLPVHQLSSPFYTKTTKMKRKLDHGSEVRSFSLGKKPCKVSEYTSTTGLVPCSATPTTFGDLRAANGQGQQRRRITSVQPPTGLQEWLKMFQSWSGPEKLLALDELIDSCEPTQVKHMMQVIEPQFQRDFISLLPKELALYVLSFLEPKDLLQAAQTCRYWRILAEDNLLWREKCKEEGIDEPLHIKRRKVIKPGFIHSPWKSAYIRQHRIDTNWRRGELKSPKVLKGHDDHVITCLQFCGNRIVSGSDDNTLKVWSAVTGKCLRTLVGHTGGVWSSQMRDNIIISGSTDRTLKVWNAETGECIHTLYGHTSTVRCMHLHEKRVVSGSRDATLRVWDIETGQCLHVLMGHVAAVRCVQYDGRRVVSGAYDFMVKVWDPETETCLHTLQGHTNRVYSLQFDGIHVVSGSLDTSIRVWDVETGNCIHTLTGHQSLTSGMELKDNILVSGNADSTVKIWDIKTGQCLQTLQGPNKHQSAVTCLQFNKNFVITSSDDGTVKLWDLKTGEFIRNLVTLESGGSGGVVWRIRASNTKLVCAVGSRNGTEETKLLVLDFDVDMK
UniProt P01106: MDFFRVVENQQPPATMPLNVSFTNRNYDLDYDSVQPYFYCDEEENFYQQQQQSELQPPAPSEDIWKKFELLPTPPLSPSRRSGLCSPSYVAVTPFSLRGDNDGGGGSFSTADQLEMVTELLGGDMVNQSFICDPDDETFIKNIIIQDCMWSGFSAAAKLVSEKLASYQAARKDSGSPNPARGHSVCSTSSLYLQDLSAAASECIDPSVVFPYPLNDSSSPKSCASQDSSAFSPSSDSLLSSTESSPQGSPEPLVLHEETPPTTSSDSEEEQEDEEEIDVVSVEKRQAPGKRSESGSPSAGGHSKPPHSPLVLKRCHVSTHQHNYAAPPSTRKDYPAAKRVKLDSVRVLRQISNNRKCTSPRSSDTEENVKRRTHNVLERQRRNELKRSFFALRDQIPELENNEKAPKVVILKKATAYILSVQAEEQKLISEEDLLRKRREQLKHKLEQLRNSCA

These are yes or no findings as the source states them, for the method shown. Binding seen in cells or lysates may run through a third protein. Some results given as binding are weak or reduced against the parent protein; the word gives no strength.

The target in experiment [1] is FBXW7 (human (endogenous in LUAD cells)) (UniProt Q969H0). The experiment in a line: co-IP; cell lysates (IP lysis buffer) with specific antibody or normal IgG (20 ug/mL) at 4 °C overnight; protein A/G magnetic beads 30 min at room temperature; washed five times with 50 mM Tris, 150 mM NaCl, 0.2% Triton X-100, 0.2% Tween, pH 7.5; immunoblot; LUAD cells (A549, SPC-A1).

Experiment [2] has as its target c-Myc (human (endogenous in A549 and SPC-A1)) (UniProt P01106). Described as above.

B1: CCDC65 (Coiled-coil domain 65) (protein, UniProt Q8IXS2 1-484)
chain: MPKKEKMAKTPLSDEKQLLLFQQKLLAEEEMAKKKERLLSQFLKDKLAKEEHNSALNLNKINTQWRTVLREVKTRELHKDIEILSQTFERVVDCKDNVIKSLAKDLSEAEEQYAHALRSHLHNVDQLLALQRHRLSLLEESYNMELEALTKEFETERKTIIDQHEKEIHYLQDIFMAMEQNYIDSEYESKLEFQSMWNDLKNMNLEEKHFLRLHLENRVEDLWRKFQDVLKNYTDATEDRKAAFETLQVKDEKSSKEIEVQMKKIQKLQDAITISKGKIMIHSRESEDENRYIRNDKELVLVQLRKLKAQRTQARAASQKNLVRLTLESNATLKALRKIVDKGEKILKLAEICRKFETEEEKVLPFYSSVLTPKEQEGIQKNNLEELTEELTKVMVDYIGMENFWKRYNKVKLEQLSLQHRRAQLLDINGKLREMLKQYLDGISVSDEVLSQLNPLFIVNYQSNLLQPLSIRIAHPGDKQHPTT
B1: the binding entry in experiment [1] and in experiment [2] was “binds” throughout.
